In PubChem BioAssay AID602313 (National Center for Advancing Translational Sciences (NCATS), 2012):
Out of some 390,000 compounds screened, about 760 (0.19%) were called active. The inconclusive results got no clear call from the source; some entries with a clear call stand among them for comparison. The call rests on the fitted dose curve; in most records, active means well fitted inhibition curve with a large enough effect; inconclusive means small, poorly fitted or top-dose-only effect; inactive means flat fitted curve, though single readings scatter. A potency beside an inconclusive call is a rough fit, not a confirmed value.

Experiment: qHTS for Inhibitors of Vif-A3F Interactions: qHTS; further: nearly all actives have a fitted effect of over 65% in size
Conditions: HeLa A3F-eYFP + Vif (tagged APOBEC3F with the HIV-1 protein that degrades it), YFP fluorescence increase; series mostly up to 46.1 µM
Summary of the method: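 Fluorescence increase (Ex 488/Em 500-530) after overnight compound treatment at 37 deg C flags inhibition of Vif-driven A3F-eYFP loss in stable HeLa A3F-eYFP/Vif cells seeded overnight beforehand.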
Potency means the concentration at half of the fitted maximal effect.

| Compound | Potency |
| --- | --- |
| CCN(C(=O)Cn1nc(Cc2cccnc2)c2ccccc2c1=O)c1cc(C)ccc1C | inactive |
| O=C(Nc1ccc(Cl)cn1)c1ccc(Oc2ccccc2)cc1 | inactive |
| C/C(=N\Nc1ncc(Cl)cc1Cl)c1ccccn1 | inconclusive: 6.31 µM [inhibitor, partial curve, poor fit] |
| CN(C)CCCn1cnc2c(c1=N)C(c1ccccc1)c1ccc3ccccc3c1O2 (stereo not given) | inconclusive: 6.31 µM [inhibitor, single point] |
| CC(=O)Nc1ccc(N/C=C/C(=O)c2ccc(Cl)cc2)cc1 | inconclusive: 5.62 µM [inhibitor, single point] |
| O=C(C=Cc1ccccc1)c1cc(Br)ccc1O | inactive |
| CC1(C)C2CCC1(C)C1(C2)NC(=O)c2ccccc2O1 (stereo not given) | inconclusive: 15.8 µM [inhibitor, single point] |
| C/C(CCC12CC3CC(CC(C3)C1)C2)=N\NC(N)=S | inconclusive: 35.5 µM [inhibitor, partial curve, poor fit] |
| O=C1CN(C(=O)COC(=O)/C=C/c2ccco2)c2ccccc2N1 | inconclusive: 0.316 µM [inhibitor, full curve, poor fit] |
| O=C1Nc2c(ccc(Cl)c2Cl)C(=O)C1(F)c1ccccc1 (stereo not given) | inconclusive: 6.31 µM [inhibitor, full curve, poor fit] |
| O=c1[nH]c(-c2ccccn2)nc(C(F)(F)F)c1Br | inconclusive: 4.47 µM [inhibitor, single point] |
| CCN(C(=O)CSc1nnc(-c2ccccc2OC)n1N)c1c(N)n(Cc2ccccc2)c(=O)[nH]c1=O | inconclusive: 35.5 µM [inhibitor, single point] |
| CCCCNC(=S)N/N=C/c1ccc(C)s1 | inconclusive: 7.94 µM [inhibitor, partial curve, poor fit] |
| CCOc1ccc2nc(NC(=O)CSC3=NCCS3)sc2c1 | inactive |
| CC1(C)Cc2c(sc(NC(=O)c3ccc4ncsc4c3)c2C(N)=O)C(C)(C)N1 | inconclusive: 3.16 µM [inhibitor, single point] |
| CCOC(=O)CSC1=NC(=O)/C(=C\c2ccc(OC(C)=O)cc2)S1 | inconclusive: 22.4 µM [inhibitor, single point] |
| CNC[C@H](CC1CCCCC1)NC[C@H](NCCC1CCCC1)[C@H](C)O | inconclusive: 35.5 µM [inhibitor, single point] |
| COc1cccc(NC(=O)CCC2CCN(C(=O)Cc3cccc(F)c3)CC2)c1 | inactive |
| CCc1nnc(NC(=O)c2nc(S(=O)(=O)Cc3ccccc3)ncc2Cl)s1 | inactive |
| O=C1c2cc(Br)ccc2N(Cc2ccc(Br)cc2)S(=O)(=O)C1c1cc(Cl)c(Cl)cc1[N+](=O)[O-] (stereo not given) | inactive |
| O=c1oc2ccc3ccccc3c2cc1-c1nnc(Nc2ccccc2)s1 | inconclusive: 2.82 µM [inhibitor, partial curve, poor fit] |
| Cc1cccc(NC(=O)CSc2nc(-c3cccs3)cc(C(F)(F)F)c2C#N)c1 | inactive |
| CCN1CCN(C(=O)C2COc3ccccc3O2)CC1 (stereo not given) | inactive |

By substructure, the entries above with a CF3 group

| Compound | Potency |
| --- | --- |
| O=c1[nH]c(-c2ccccn2)nc(C(F)(F)F)c1Br | inconclusive: 4.47 µM [inhibitor, single point] |
| Cc1cccc(NC(=O)CSc2nc(-c3cccs3)cc(C(F)(F)F)c2C#N)c1 | inactive |

(list continues)

| Compound | Potency |
| --- | --- |
| CCOC(=O)COc1ccc2nsnc2c1Cl | inconclusive: 2.82 µM [inhibitor, full curve, poor fit] |
| Cc1ccc(N(C(=O)c2snc(C(N)=O)c2N)C(CC(C)C)C(=O)NC2CCCC2)cc1 (stereo not given) | inconclusive: 35.5 µM [inhibitor, single point] |
| CCCC1O[C@@H]2C[C@H]3[C@@H]4CCC5=CC(=O)C=C[C@]5(C)[C@H]4[C@@H](O)C[C@]3(C)[C@]2(C(=O)CO)O1 (stereo not given in full) | inactive |
| CC(C)N1CCc2c(sc(N)c2C#N)C1 | inactive |
| O=C(C1=NN(c2ccccc2)C2C(=O)N(c3ccc(Cl)cc3)C(=O)C12)c1ccccc1 (stereo not given) | inconclusive: 22.4 µM [inhibitor, single point] |
| CC12CCC(=O)N1C(C(=O)NCCN1C(=O)S/C(=C\c3ccc(OC(F)F)cc3)C1=O)CS2 (stereo not given) | inconclusive: 3.16 µM [inhibitor, single point] |
| CCc1ccc2[nH]c(=O)c(CN(CCN(C)C)C(=O)Nc3ccccc3)cc2c1 | inactive |
| COc1ccccc1NC(=S)N(CCCN1CCOCC1)Cc1cn(C)c2ccccc12 | inactive |
| Nc1nc(SC23CC4CC(CC(C4)C2)C3)ns1 | inconclusive: 35.5 µM [inhibitor, single point] |
| CN(Cc1ccccc1)c1nc2c(c(=O)[nH]c(=O)n2C)n1CCCSc1ncccn1 | inconclusive: 3.16 µM [inhibitor, partial curve, poor fit] |
| CC1CCc2noc(NC(=O)c3ccccc3[N+](=O)[O-])c2C1 (stereo not given) | inactive |
| Cc1ccc(S(=O)(=O)CCC(=O)OCC(=O)NCc2ccc(F)cc2)cc1 | inactive |
| CCn1c(C)nc2cc(C(=O)NN=C(C)c3ccc(C#N)cc3)ccc21 | inconclusive: 6.31 µM [inhibitor, single point] |
| Cn1cccc1CC(=O)N/N=C\c1c2ccccc2cc2ccccc12 | inconclusive: 35.5 µM [inhibitor, partial curve, poor fit] |
| CSCC[C@H](NC(=O)N1CCn2c1nc1ccccc12)C(=O)NCc1ccccc1 | inactive |
| CCc1ccc(/C=C/C(=O)C2C(=O)c3ccccc3C2=O)cc1 | inactive |
| S=C(NCc1ccccn1)Nc1ccc(Br)cc1Cl | inconclusive: 7.94 µM [inhibitor, partial curve, poor fit] |
| O=C(NC(=S)NCc1ccccc1)c1cccc([N+](=O)[O-])c1 | inconclusive: 35.5 µM [inhibitor, single point] |
| CC(C)Cn1c(SCC(=O)Nc2ccc(Cl)cc2F)nc(O)cc1=O | inconclusive: 2.82 µM [inhibitor, partial curve, poor fit] |
| CC(C)NC(=O)C1CCN(C2CCN(Cc3cn[nH]c3-c3ccccc3)CC2)CC1 | inconclusive: 2.82 µM [inhibitor, single point] |
| S=c1[nH]c2cnc(Cl)nc2[nH]1 | inconclusive: 35.5 µM [inhibitor, single point] |
| Oc1c(C(c2ccccn2)N2CCC(Cc3ccccc3)CC2)cc(Cl)c2cccnc12 (stereo not given) | inconclusive: 3.55 µM [inhibitor, single point] |
